Experimental data taken from PubChem BioAssay AID493014 (National Center for Advancing Translational Sciences (NCATS), 2011).
Some of the results follow. Shown are side measurements of this screen, not its main read-out; they come without a call. Compounds called inactive in the main read-out are mostly missing here. Potencies come from curve fits of mixed quality, noted in brackets.

Assay: qHTS Assay to Find Inhibitors of Chronic Active B-Cell Receptor Signaling
Settings: ABC-DLBCL IkBa-CBG/CBR reporter, luminescence ratio (green luciferase fused to IkBa over red control in TMD8 lymphoma cells), 4 h
Method in brief: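 TMD8 ABC-DLBCL cells carrying doxycycline-inducible green luciferase fused to IkappaBalpha plus unfused red luciferase were exposed to compounds (up to 46 uM) for 4 hrs at 37C. Activity came from the overlap-corrected green/red luminescence ratio.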

[1] = measured here: CBR red luminescence, cell number
[2] = measured here: IkBa-CBG green luminescence

SMILES	AC50 [1]	AC50 [2]
COc1ccccc1NS(=O)(=O)c1cccc(NC(=O)Nc2ccc(Cl)cc2)c1	22.4 µM [falling, single point]	–
C/C(=N\NC(=O)c1cccc(C)c1)c1cccc(NC(=O)c2ccco2)c1	22.4 µM [falling, single point]	–
COc1ccccc1CCC(=O)NNC(=O)c1ccncc1	29.1 µM [falling, single point]	–
C=CCNC(=O)C1CC2Cn3c(nc4cc(C)c(C)cc43)C2N1C (configuration not stated)	35.5 µM [rising, single point]	–
CC1(C)Cc2ccccc2/C(=C/C(=O)N2CCCCCC2)N1	10.3 µM [falling, partial curve, poor fit]	–
CN(CCOc1ccc(Cl)cc1)C(=O)CNS(=O)(=O)c1ccc(N(C)C)c([N+](=O)[O-])c1	16.4 µM [falling, single point]	–
COc1cccc(-c2ccc(NC(=O)C3CCCN(Cc4cnn(C)c4C)C3)cc2)c1 (configuration not stated)	12.6 µM [falling, single point]	–
N#C/C(=C\c1ccc[nH]1)C(=O)c1ccccc1	1 µM [rising, partial curve, poor fit]	–
CCOC(=O)C(NC(=O)NCc1cccc(C(F)(F)F)c1)(OCC)C(F)(F)F (configuration not stated)	6.51 µM [rising, partial curve, poor fit]	–
COc1ccc(/C=N/NC(=O)c2nc(Cl)c(Cl)c(N)c2Cl)cc1COc1ccccc1F	0.447 µM [rising, full curve, poor fit]	–
O=C(NC1CCCCC1)N1CCc2ccccc21	18.4 µM [falling, partial curve]	–
O=C(O)CN1C(=O)c2ccc(C(=O)c3ccccc3)cc2C1=O	0.794 µM [falling, full curve, poor fit]	–
CC1(C)CC(CCNC(=O)CCl)(c2ccccc2)CCO1 (configuration not stated)	10 µM [falling, partial curve]	–
CCOc1ccccc1OCCOc1ccc(F)cc1	3.55 µM [rising, full curve, poor fit]	–
O=S(=O)(c1cc(Cl)ccc1Br)N1CCOCC1	1.3 µM [rising, full curve, poor fit]	–
O=C(NNC(=S)Nc1cccc2ccccc12)c1cccc(Br)c1	0.92 µM [falling, full curve]	–
CC(C)N(C(=O)CSc1nc2ccccc2n1Cc1ccc(F)cc1)C(C)C	3.66 µM [falling, partial curve]	–
COc1ccc(NC(=O)C(CC(C)C)NC(=O)C2CCC(C)CC2)c(OC)c1 (configuration not stated)	3.16 µM [rising, partial curve, poor fit]	–
COc1ccc(-c2csc3ncnc(N4CCN(S(=O)(=O)c5ccc(C)c(C)c5)CC4)c23)cc1	18.4 µM [rising, partial curve, poor fit]	–
COc1ccc(Nc2ncnc3ccccc23)c(OC)c1	14.6 µM [falling, single point]	–
O=C(Nc1cccc(-n2cnnn2)c1)c1ccc(OC(F)(F)F)cc1	2.51 µM [rising, full curve, poor fit]	–
COc1cc(OC)c(OC)cc1/C=N/NC(=O)c1cc(-c2cccn2C)n[nH]1	35.5 µM [falling, single point]	–

SMILES	AC50 [1]	AC50 [2]
COc1ccccc1NC(=O)C1=C(C)NC(=O)NC1c1ccccc1[N+](=O)[O-] (configuration not stated)	2.24 µM [falling, full curve]	–
Cc1ccc(-n2ncc3c(N4CCN(C)CC4)ncnc32)cc1C	15.8 µM [falling, single point]	–
CCN(CC)C(=O)CN(c1ccc(F)c(Cl)c1)S(C)(=O)=O	35.5 µM [rising, partial curve, poor fit]	–
Cc1nc2ccccc2c2nc(NC(=O)C(F)(F)F)nn12	4.47 µM [falling, full curve, poor fit]	–
COc1ccc(C2=Nn3c(nnc3-c3ccccc3)SC2)cc1OC	–	29.1 µM [falling, single point]
Cn1nnc(NC(=S)NC(=O)c2ccc(-c3ccc(Br)cc3)o2)n1	6.31 µM [rising, single point]	–
COc1ccc(NC(=O)/C=C\C(=O)N(c2ccc(C(C)C)cc2)C(C(=O)NCc2ccco2)c2ccc(F)cc2)cc1 (configuration not stated)	7.94 µM [falling, partial curve, poor fit]	–
COc1cnc(N(C)C)nc1Sc1cccc(Cl)c1	16.4 µM [rising, partial curve]	–
Nc1[nH]ncc1C(=O)Nc1cccc(C(F)(F)F)c1	35.5 µM [rising, single point]	–
Cc1sc2ncnc(N(C)C3CCCCC3)c2c1C	7.08 µM [rising, partial curve, poor fit]	–
O=C(CN1C(=O)NC2(CCCC2)C1=O)Nc1nc2ccccc2s1	20.6 µM [falling, partial curve]	–
O=C(NCc1ccco1)C1CCN(c2nc3ccccc3n2Cc2ccccc2F)CC1	36.6 µM [falling, partial curve, poor fit]	–
O=C(Nc1ccc(N2CCOCC2)c(Cl)c1)c1ccccc1Cl	1.58 µM [falling, full curve]	–
O=C(Nc1ccc(F)cc1F)c1cc(-c2ccco2)on1	5.01 µM [falling, partial curve]	–
COCCCNC(=O)/C=C1\Sc2ccccc2N(Cc2ccccc2F)C1=O	28.2 µM [rising, single point]	–
CC1=C(C)CS(=O)N(S(=O)(=O)c2ccc(Cl)cc2)C1 (configuration not stated)	35.5 µM [rising, single point]	35.5 µM [falling, single point]
C#CCOc1ccccc1/C=N/NC(=O)c1ccccc1OCc1ccccc1	0.316 µM [falling, full curve]	–
COc1ccc(C)cc1S(=O)(=O)NC1CCCCC1C (configuration not stated)	0.731 µM [falling, partial curve, poor fit]	–
O=C(CC1SC(=Nc2ccccc2)N(Cc2ccccn2)C1=O)Nc1cccc(Cl)c1 (configuration not stated)	–	29.1 µM [rising, partial curve, poor fit]
O=C(NCc1ccco1)C(=O)c1c[nH]c2ccccc12	7.08 µM [falling, partial curve]	–
CN(Cc1ccco1)S(=O)(=O)c1nnc(NC(=O)c2cccc(Cl)c2)s1	35.5 µM [falling, single point]	–
COc1cc(C(=O)N/N=C/C2CC=CCC2)cc(OC)c1OC (configuration not stated)	1.84 µM [rising, full curve]	2.06 µM [falling, partial curve]

SMILES	AC50 [1]	AC50 [2]
CC(C)C[C@@H]1NC(=O)[C@H](Cc2ccc(O)cc2)NC(=O)c2cc([N+](=O)[O-])cc(I)c2NCCC[C@@H](C(N)=O)NC1=O	0.0326 µM [rising, full curve, poor fit]	–
CC(=O)Nc1ccc(S(=O)(=O)Nc2nc3c(s2)CCCC3)cc1	29.1 µM [falling, single point]	–
CN(C)c1ccc(C(=O)N2CC(=O)N(CCc3ccccc3)C(=O)C2)cc1	2.51 µM [rising, partial curve]	–
Cc1ccc(NC(=O)Cn2c(=O)oc3cc(S(=O)(=O)N4CCCCCC4)ccc32)cc1Cl	35.5 µM [rising, single point]	–
CC(CCO)Nc1nc2c([nH]1)c(=O)n(C)c(=O)n2C (configuration not stated)	4.61 µM [falling, full curve]	–
O=C(N1CCCCC1)N1CCN(c2ccc(Cl)cc2)CC1	10.3 µM [rising, partial curve]	–
O=C(NNC(=O)c1ccc2ccccc2n1)c1ccc(O)cc1	1.84 µM [falling, full curve]	–
Cn1cc(S(=O)(=O)NC(c2ccccc2)c2ccccc2)c(=O)n(C)c1=O	22.4 µM [rising, single point]	–
CN1/C(=N\O)c2cccc3cccc1c23	35.5 µM [falling, single point]	–
COc1cc(C#Cc2c(-c3cncn3C)n(C)c3ccc(-c4cnc(N5CCOCC5)nc4)cc23)cc(OC)c1	0.366 µM [rising, full curve]	–
O=C(Nc1ccc(F)cc1)Nc1ccc(Cl)cn1	6.51 µM [rising, single point]	–
CCOc1ccccc1OCC(=O)Nc1nc2ccccc2[nH]1	11.2 µM [falling, partial curve]	–
CC(=O)c1cc(NC(=O)c2ccc([N+](=O)[O-])cc2)c(=O)oc1C	35.5 µM [falling, single point]	–
Cc1cc(C)n(-c2nc(NCCN(C)C)c3c4c(sc3n2)COC(C)(C)C4)n1	12.6 µM [falling, partial curve, poor fit]	–
Cc1cc(=O)n(CCc2ccccc2)c(O)c1C#N	0.517 µM [falling, partial curve, poor fit]	–
Cc1ccc(S(=O)(=O)N2CCCC2C(=O)OCc2nc3ccccc3s2)cc1 (configuration not stated)	3.26 µM [rising, full curve]	–
COc1ccc(N2CCN(C(=O)CSc3nnc4c(C)cc5c(C)cc(C)cc5n34)CC2)cc1	13 µM [rising, partial curve]	–
CCn1c(COc2ccc(=O)n(-c3ccccc3)n2)nnc1SCc1ccc(C)cc1	20 µM [falling, partial curve, poor fit]	–
CN(C)Cc1c(O)ccc2oc(Cc3ccccc3)cc12	10.3 µM [falling, partial curve]	23.1 µM [rising, partial curve, poor fit]
Clc1ccccc1N=C1NN=C(c2cccs2)CS1	31.6 µM [falling, single point]	–

Structures shown so far containing an aryl thioether with sulfur outside any ring (four):
SMILES	AC50 [1]	AC50 [2]
CC(C)N(C(=O)CSc1nc2ccccc2n1Cc1ccc(F)cc1)C(C)C	3.66 µM [falling, partial curve]	–
COc1cnc(N(C)C)nc1Sc1cccc(Cl)c1	16.4 µM [rising, partial curve]	–
COc1ccc(N2CCN(C(=O)CSc3nnc4c(C)cc5c(C)cc(C)cc5n34)CC2)cc1	13 µM [rising, partial curve]	–
CCn1c(COc2ccc(=O)n(-c3ccccc3)n2)nnc1SCc1ccc(C)cc1	20 µM [falling, partial curve, poor fit]	–
